PubChem BioAssay AID1671195 – Yale University | 2021
The whole screen tested about 22,000 reagents; shown is an unselected part. In the full data, about 1,510 (6.9%) were called active. 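Active includes knockdowns raising or lowering LDL uptake; positive z-scores mean more uptake, negative mean less.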 Entries without a mark were called inactive.

- Test: 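Genes whose knockdown alters LDL uptake in liver cancer cells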 (primary screen)
- Cells: human Huh7 hepatoma cells
- Reagent: siRNA pool against human genes, 18 nM
- Duration: about 2 to 2.5 days of knockdown, then 8 h LDL uptake
- Challenge: DiI-labelled LDL at 30 µg/ml for 8 h, in lipoprotein-deficient serum medium
- Read-out: 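Per-cell DiI-LDL intensity by automated imaging; well means scaled to the plate median and given as a robust z-score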
- Scale: robust z-score: higher = more LDL uptake after knockdown
- Hit rule: 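a gene counts as active if at least two replicate z-scores exceed ±2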

IGHV3OR16-12 [SID442901556] — robust z-score, replicate 1: -1.09; robust z-score, replicate 2: -0.819; robust z-score, replicate 3: -0.848
ERI1 [SID442893679] — robust z-score, replicate 1: 0.208; robust z-score, replicate 2: -0.206; robust z-score, replicate 3: 0.0646
BCAT2 [SID442896201] — robust z-score, replicate 1: -0.441; robust z-score, replicate 2: 0.166; robust z-score, replicate 3: -0.469
RINL [SID442897712] — robust z-score, replicate 1: 0.189; robust z-score, replicate 2: -0.752; robust z-score, replicate 3: -0.684
LOC389189 (retired record) [SID442883732] — robust z-score, replicate 1: 3.23 (active); robust z-score, replicate 2: 2.19; robust z-score, replicate 3: 1.76
BCL9L [SID442898956] — robust z-score, replicate 1: -0.622; robust z-score, replicate 2: -0.406; robust z-score, replicate 3: -0.648
HDGFL3 [SID442885278] — robust z-score, replicate 1: 2.17; robust z-score, replicate 2: 0.806; robust z-score, replicate 3: 1.78
PRCP [SID442900758] — robust z-score, replicate 1: -0.843; robust z-score, replicate 2: -0.849; robust z-score, replicate 3: -0.718
E2F6P4 [SID442883698] — robust z-score, replicate 1: 3.07 (active); robust z-score, replicate 2: 2.26; robust z-score, replicate 3: 2
LINC01138 [SID442887378] — robust z-score, replicate 1: 1.46; robust z-score, replicate 2: 0.871; robust z-score, replicate 3: 0.446
LOC391345 (retired record) [SID442890586] — robust z-score, replicate 1: 0.65; robust z-score, replicate 2: 0.46; robust z-score, replicate 3: 0.077
MORN5 [SID442888471] — robust z-score, replicate 1: 0.855; robust z-score, replicate 2: 0.589; robust z-score, replicate 3: 0.697
ITSN2 [SID442900426] — robust z-score, replicate 1: -0.876; robust z-score, replicate 2: -0.127; robust z-score, replicate 3: -1.27
HAUS4 [SID442891898] — robust z-score, replicate 1: 0.688; robust z-score, replicate 2: -0.416; robust z-score, replicate 3: 0.425
DNAJC21 [SID442885501] — robust z-score, replicate 1: 1.08; robust z-score, replicate 2: 1.29; robust z-score, replicate 3: 2.09
BOK [SID442888826] — robust z-score, replicate 1: 0.988; robust z-score, replicate 2: 0.907; robust z-score, replicate 3: 0.0689
GTF3C1 [SID442899922] — robust z-score, replicate 1: -0.866; robust z-score, replicate 2: -0.665; robust z-score, replicate 3: -0.531
MTHFSD [SID442886312] — robust z-score, replicate 1: 1.15; robust z-score, replicate 2: 1.48; robust z-score, replicate 3: 0.961
GART [SID442894138] — robust z-score, replicate 1: -1.1; robust z-score, replicate 2: 0.437; robust z-score, replicate 3: 0.571
FAM168B [SID442903769] — robust z-score, replicate 1: -0.694; robust z-score, replicate 2: -1.78; robust z-score, replicate 3: -1.68
CNTNAP5 [SID442900528] — robust z-score, replicate 1: -0.694; robust z-score, replicate 2: -0.586; robust z-score, replicate 3: -1.04
KDM6A [SID442886174] — robust z-score, replicate 1: 1.2; robust z-score, replicate 2: 2.11; robust z-score, replicate 3: 0.417
PLPBP [SID442889347] — robust z-score, replicate 1: 0.457; robust z-score, replicate 2: 0.806; robust z-score, replicate 3: 0.456
PIGO [SID442889243] — robust z-score, replicate 1: 0.309; robust z-score, replicate 2: 0.385; robust z-score, replicate 3: 1.07
CBLN4 [SID442887819] — robust z-score, replicate 1: 1.01; robust z-score, replicate 2: 1.08; robust z-score, replicate 3: 0.415
ERC2 [SID442885158] — robust z-score, replicate 1: 2.93; robust z-score, replicate 2: 1.54; robust z-score, replicate 3: 0.47
ISLR2 [SID442885301] — robust z-score, replicate 1: 1.17; robust z-score, replicate 2: 1.69; robust z-score, replicate 3: 1.85
LOC441766 (retired record) [SID442897456] — robust z-score, replicate 1: -0.283; robust z-score, replicate 2: -0.639; robust z-score, replicate 3: -0.241
LOC389663 (retired record) [SID442894904] — robust z-score, replicate 1: -0.254; robust z-score, replicate 2: -0.192; robust z-score, replicate 3: 0.111
CELF4 [SID442886822] — robust z-score, replicate 1: 1.65; robust z-score, replicate 2: 1.08; robust z-score, replicate 3: 0.432
